Laboratory results: publication PMC8630191

Columns and labels:
[1] = biological target: T1, 3xFLAG-tagged PP4c, wild type (human) (UniProt P60510); assay: affinity purification with mass spectrometry; 3xFLAG-tagged catalytic subunit (WT or ΔL) transfected in FreeStyle 293F cells; FLAG M2 affinity gel, 3 h at 4 °C; lysis and wash buffer 50 mM Tris pH 7.5, 500 mM NaCl, 0.5% Triton X-100; eluted with 3XFLAG peptide; label-free quantitative LC-MS/MS on unique peptides, three replicates
T1 sequence: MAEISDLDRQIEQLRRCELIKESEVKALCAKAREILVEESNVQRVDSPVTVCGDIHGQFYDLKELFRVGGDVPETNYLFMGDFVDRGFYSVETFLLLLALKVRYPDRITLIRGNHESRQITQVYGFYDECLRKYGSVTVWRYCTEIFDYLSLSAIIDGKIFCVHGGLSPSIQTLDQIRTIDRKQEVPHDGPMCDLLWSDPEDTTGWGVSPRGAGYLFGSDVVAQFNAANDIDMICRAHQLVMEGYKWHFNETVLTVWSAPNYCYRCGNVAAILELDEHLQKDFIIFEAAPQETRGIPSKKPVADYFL

[2] = biological target: T2, 3xFLAG-tagged PP4c ΔL mutant (Leu 307 deleted) (human) (UniProt P60510); assay: as above
T2 sequence: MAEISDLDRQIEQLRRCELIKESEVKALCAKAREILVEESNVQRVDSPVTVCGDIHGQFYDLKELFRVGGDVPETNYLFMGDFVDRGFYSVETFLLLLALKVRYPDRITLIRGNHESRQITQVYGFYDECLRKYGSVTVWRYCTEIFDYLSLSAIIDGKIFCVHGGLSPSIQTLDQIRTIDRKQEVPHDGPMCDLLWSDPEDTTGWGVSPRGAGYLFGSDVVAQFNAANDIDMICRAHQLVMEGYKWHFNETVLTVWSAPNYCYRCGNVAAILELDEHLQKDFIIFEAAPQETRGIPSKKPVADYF

B1: PP4R1, PP4 regulatory subunit (protein, UniProt Q8TF05 1-950)
chain: MADLSLLQEDLQEDADGFGVDDYSSESDVIIIPSALDFVSQDEMLTPLGRLDKYAASENIFNRQMVARSLLDTLREVCDDERDCIAVLERISRLADDSEPTVRAELMEQVPHIALFCQENRPSIPYAFSKFLLPIVVRYLADQNNQVRKTSQAALLALLEQELIERFDVETKVCPVLIELTAPDSNDDVKTEAVAIMCKMAPMVGKDITERLILPRFCEMCCDCRMFHVRKVCAANFGDICSVVGQQATEEMLLPRFFQLCSDNVWGVRKACAECFMAVSCATCQEIRRTKLSALFINLISDPSRWVRQAAFQSLGPFISTFANPSSSGQYFKEESKSSEEMSVENKNRTRDQEAPEDVQVRPEDTPSDLSVSNSSVILENTMEDHAAEASGKPLGEISVPLDSSLLCTLSSESHQEAASNENDKKPGNYKSMLRPEVGTTSQDSALLDQELYNSFHFWRTPLPEIDLDIELEQNSGGKPSPEGPEEESEGPVPSSPNITMATRKELEEMIENLEPHIDDPDVKAQVEVLSAALRASSLDAHEETISIEKRSDLQDELDINELPNCKINQEDSVPLISDAVENMDSTLHYIHSDSDLSNNSSFSPDEERRTKVQDVVPQALLDQYLSMTDPSRAQTVDTEIAKHCAYSLPGVALTLGRQNWHCLRETYETLASDMQWKVRRTLAFSIHELAVILGDQLTAADLVPIFNGFLKDLDEVRIGVLKHLHDFLKLLHIDKRREYLYQLQEFLVTDNSRNWRFRAELAEQLILLLELYSPRDVYDYLRPIALNLCADKVSSVRWISYKLVSEMVKKLHAATPPTFGVDLINELVENFGRCPKWSGRQAFVFVCQTVIEDDCLPMDQFAVHLMPHLLTLANDRVPNVRVLLAKTLRQTLLEKDYFLASASCHQEAVEQTIMALQMDRDSDVKYFASIHPASTKISEDAMSTASSTY
binding [1]: binds
binding [2]: binds

Results are given in words; binding and its absence hold for the method and conditions named. In cells and extracts the contact can be indirect. These calls come from enrichment with a bait or labelling near it, and not all partners need be listed. Where a sequence is shown, tags or fusion partners need not be part of it.
